# From PubChem BioAssay AID1671190 (National Center for Advancing Translational Sciences (NCATS), 2021)
# Protein sequences, listed by entry. Tags and fused reporters are not part of them. Lines headed by an entry give the natural chain unless they say otherwise; changes in a name come on top.
# UniProt P18054: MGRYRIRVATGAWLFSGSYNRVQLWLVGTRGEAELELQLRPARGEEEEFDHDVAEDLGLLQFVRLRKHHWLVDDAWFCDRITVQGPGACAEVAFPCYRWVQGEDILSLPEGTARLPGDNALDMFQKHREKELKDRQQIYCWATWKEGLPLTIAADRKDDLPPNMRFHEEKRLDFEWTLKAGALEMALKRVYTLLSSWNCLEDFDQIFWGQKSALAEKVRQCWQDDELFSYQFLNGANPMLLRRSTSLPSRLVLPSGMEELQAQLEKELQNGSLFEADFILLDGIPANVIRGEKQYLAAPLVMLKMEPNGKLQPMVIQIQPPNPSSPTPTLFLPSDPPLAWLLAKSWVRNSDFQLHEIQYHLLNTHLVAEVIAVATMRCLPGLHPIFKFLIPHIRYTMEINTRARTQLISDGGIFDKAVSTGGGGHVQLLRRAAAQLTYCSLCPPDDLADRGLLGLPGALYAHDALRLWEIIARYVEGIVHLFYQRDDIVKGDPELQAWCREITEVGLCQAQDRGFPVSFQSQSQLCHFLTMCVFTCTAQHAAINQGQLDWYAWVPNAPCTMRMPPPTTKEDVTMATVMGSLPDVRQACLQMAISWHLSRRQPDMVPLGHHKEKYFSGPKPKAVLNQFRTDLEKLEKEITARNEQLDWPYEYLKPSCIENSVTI
# The whole screen tested about 580,000 compounds, of which about 6,100 (1.1%) were called active. Inconclusive results, whose numbers are uncertain, are shown with a selection of clear calls. Calls come from the whole dose curve; as a rule, active = well fitted inhibition curve with a large enough effect; inconclusive = small, poorly fitted or top-dose-only effect, or another doubt; inactive = no such curve, though single readings can be large or run the other way. A potency beside an inconclusive call is a rough fit, not a confirmed value.
# Target: Polyunsaturated fatty acid lipoxygenase ALOX12 (Homo sapiens) (UniProt P18054)
# Assay: Primary qHTS assay for inhibitors of human arachidonate 12S-lipoxygenase (ALOX12): Round 2
# Details: purified 12hLO, xylenol orange hydroperoxide absorbance; activity change, negative = inhibition: at 108 µM (top of the series) unless noted
# Procedure, shortened: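 Hydroperoxide product was detected by ferrous iron/xylenol orange as the 573 to 405 nm absorbance ratio. Arachidonic acid at 40 uM (final) was turned over for 30 min at room temperature by 150 nM human 12hLO, pH 7.0 Hepes buffer, after 15 min compound preincubation.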
# % is set by controls: 0 for no effect and ±100 for the full control effect; potency is the fitted concentration of half-maximal effect.
SMILES,Potency,"activity change, negative = inhibition"
CNc1nc2cnc(Nc3ccc(C(F)(F)F)cc3)cc2n1-c1cc(OC)c(OC)c(OC)c1,"inconclusive: 70.8 µM [inhibitor, partial curve, poor fit]",–
CC(C)Oc1ccc(CN2CCC(CO)(Cc3ccccc3Cl)CC2)cc1CO,–,inactive: 4.09%
COc1cccc2c(C)c(C(=O)O)[nH]c12,"inconclusive: 56.2 µM [inhibitor, partial curve, poor fit]",–
Cc1ccc2nc(C3CCCCC3)c(Cc3ccccc3)n2c1,"inconclusive: 0.282 µM [inhibitor, full curve, poor fit]",–
Cc1c(/C=N/NC(N)=O)c2ccccn2c1C(=O)c1ccncc1,"inconclusive: 35.5 µM [inhibitor, partial curve, poor fit]",–
COCCOCC(O)CN1CCN(c2ccc(C)cc2)CC1 (stereo not drawn),"inconclusive: 0.794 µM [inhibitor, full curve, poor fit]",–
CCC1(CC)C(=O)C2=C3C1[C@H](C(=O)OC)C=C(C(=O)OC)C[C@H]3[C@H]1C(=O)N(Cc3ccccc3)C(=O)[C@H]1[C@H]2C (stereo partly drawn),"inconclusive: 44.7 µM [inhibitor, partial curve, poor fit]",–
Cc1ccc(-c2nc(CSCC(=O)N3CCN(c4ccccn4)CC3)c(C)o2)cc1,–,inactive: 15.9% [at 57.4 µM]
Cc1cc(C)c2nc(-c3ccccn3)cc(C(=O)NCc3ccco3)c2c1,"inconclusive: 20 µM [inhibitor, partial curve, poor fit]",–
C=CC[n+]1c(-c2ccc(Cl)cc2Cl)csc1Nc1c(C)n(C)n(-c2ccccc2)c1=O,"inconclusive: 70.8 µM [inhibitor, partial curve, poor fit]",–
S=C(NCc1ccccc1)Nc1ccc(Cl)cc1,"inconclusive: 39.8 µM [inhibitor, partial curve]",–
Cc1cc2nc(C3CCN(CC4COc5ccccc5O4)CC3)[nH]c2cc1C (stereo not drawn),"inconclusive: 6.31 µM [inhibitor, full curve, poor fit]",–
COCCN(C(=O)COC(=O)Cc1coc2cc(C)ccc12)c1c(N)n(Cc2ccccc2)c(=O)[nH]c1=O,"inconclusive: 44.7 µM [inhibitor, partial curve, poor fit]",–
COCCN1C(=O)CS(=O)(=O)C12CCN(C(=O)Cc1ccc(OC)c(Cl)c1)CC2,–,inactive: 11.3%
O=C(CCc1nc(C2CC(=O)N(C3CCCCC3)C2)no1)c1ccc(Cl)cc1 (stereo not drawn),"inconclusive: 20 µM [inhibitor, full curve]",–
C/C(=N\NC(=O)C1CC1c1ccccc1)c1cccc(C)c1 (stereo not drawn),"inconclusive: 44.7 µM [inhibitor, partial curve, poor fit]",–
O=C(NCc1ccc(Cl)cc1)c1nc(Cc2c[nH]c3ccccc23)no1,"inconclusive: 56.2 µM [inhibitor, partial curve, poor fit]",–
CCOc1ccccc1OCCN1CCC(Cc2ccccc2)CC1,–,inactive: -22.8%
CCN1CCN(C(=O)c2ccc3c(c2)N(Cc2ccc(F)cc2)C(=O)c2ccccc2S3(=O)=O)CC1,–,inactive: -16.7%
O=C1CO[C@H]2CN(c3ncccn3)C[C@H]2N1Cc1ccncc1,"inconclusive: 17.8 µM [inhibitor, full curve]",–
O=C(Nc1nnc(SCCN2CCOCC2)s1)C1CC(=O)N(c2ccc(F)cc2)C1 (stereo not drawn),"inconclusive: 50.1 µM [inhibitor, partial curve, poor fit]",–
CCn1c2c(c(=O)n3ncc(C(=O)Nc4ccc(F)cc4Cl)c13)CN(Cc1ccc(OC)cc1)CC2,"inconclusive: 39.8 µM [inhibitor, partial curve]",–
Cc1ccccc1CN(C)C(C(=O)NC1CC1)c1ccccc1 (stereo not drawn),–,inactive: 4.51%

SMILES,Potency,"activity change, negative = inhibition"
CC(C)C(c1nnnn1CC1CCCO1)N1CCN(C2CCCC2)CC1 (stereo not drawn),"inconclusive: 17.8 µM [inhibitor, partial curve, poor fit]",–
S=C(c1ccc(N2CCOCC2)cc1)N1CCOCC1,"inconclusive: 44.7 µM [inhibitor, partial curve, poor fit]",–
CCCCCOC(=O)/C(C#N)=C/c1c[nH]c2ccccc12,"inconclusive: 44.7 µM [inhibitor, partial curve, poor fit]",–
CN1CCN(C2CN(Cc3cn(Cc4cccc(C(F)(F)F)c4)nn3)S(=O)(=O)C2)CC1 (stereo not drawn),"inconclusive: 44.7 µM [inhibitor, full curve, poor fit]",–
N#Cc1ccccc1COC(=O)c1ccccc1NCCO,"inconclusive: 35.5 µM [inhibitor, partial curve, poor fit]",–
COc1ccc(Br)cc1Cn1nnc(C(=O)Nc2cc(C)ccc2OC)c1N,–,inactive: -34.9%
CCOc1ccc(/C=N/NC(=O)COc2ccccc2-c2ccccc2)cc1,–,inactive: -17.5%
CCc1ccc2c(c1)C(O)(CC(=O)c1ccc(F)cc1)C(=O)N2 (stereo not drawn),"inconclusive: 89.1 µM [inhibitor, single point]",–
O=C(CSc1nc(=O)n(Cc2ccco2)c2c1CCC2)NC1CCCC1,–,inactive: -8.66%
O=c1oc2ccc(Cl)cc2nc1/C=C(\O)c1ccco1,–,inactive: 228%
O=C(O)c1cc(S(=O)(=O)Nc2ccc3oc(=O)sc3c2)ccc1O,"inconclusive: 28.2 µM [inhibitor, partial curve, poor fit]",–
Cc1cc2[nH]c(C(=O)O)cc2c2ccccc12,"inconclusive: 8.91 µM [inhibitor, partial curve, poor fit]",–
Cc1ccc(-c2cc(C(F)F)n3ncc(C(=O)N4CCCCC4c4cccnc4)c3n2)cc1 (stereo not drawn),–,inactive: 0.702%
COc1cccc(Nc2csc(CN3CCCC(C)(NC(C)=O)C3)c2)c1 (stereo not drawn),"inconclusive: 39.8 µM [inhibitor, single point]",–
CCOc1ccccc1NC(=O)C(=O)c1cc(C)n(-c2ccc(F)cc2)c1C,"inconclusive: 112 µM [inhibitor, partial curve, poor fit]",–
CC(=O)c1sc(N/N=C\c2c(O)ccc3ccccc23)nc1C,active: 39.8 µM,–
N#C/C(=C/c1ccc(N2CCCCC2)o1)c1cccc(F)c1,active: 10 µM,–
Cc1ccc(CNC(=O)CSc2nc3cc([N+](=O)[O-])ccc3o2)cc1,–,inactive: -17.8%
CCC(=O)N1CCc2cc(Br)c(S(=O)(=O)CCC(=O)NCCC(C)C)cc21,–,inactive: 2.99%
O=C(O)c1ccccc1NS(=O)(=O)c1cccc(-n2sc3ccccc3c2=O)c1,active: 0.224 µM,–
CC(Oc1ccc2ccc(=O)oc2c1)C(=O)N(C(C)C)C(C)C (stereo not drawn),"inconclusive: 141 µM [inhibitor, partial curve, poor fit]",–
Cc1nn(-c2ccccc2)cc1C(=O)N1CCC(C(C)C(=O)NCc2ccc3c(c2)OCO3)CC1 (stereo not drawn),–,inactive: -3.4%
CCOc1ccc(CNC(=O)c2cc3c(s2)-c2ccccc2OC3)cc1,–,inactive: -4.02%

# Filtered by structure: the compounds so far with an aryl thioether with sulfur outside any ring (three)
SMILES,Potency,"activity change, negative = inhibition"
O=C(Nc1nnc(SCCN2CCOCC2)s1)C1CC(=O)N(c2ccc(F)cc2)C1 (stereo not drawn),"inconclusive: 50.1 µM [inhibitor, partial curve, poor fit]",–
O=C(CSc1nc(=O)n(Cc2ccco2)c2c1CCC2)NC1CCCC1,–,inactive: -8.66%
Cc1ccc(CNC(=O)CSc2nc3cc([N+](=O)[O-])ccc3o2)cc1,–,inactive: -17.8%

# Additional results

SMILES,Potency,"activity change, negative = inhibition"
COC(=O)Cn1c(=O)c2c(nc(-n3nc(C)cc3C)n2C)n(C)c1=O,–,inactive: 0.167%
Cc1ccc(CNC(=O)c2c(C)[nH]c3ccccc23)cc1,–,inactive: 4.7%
COc1cc(NC(=O)c2cccc(Cl)c2)ccc1NC(=O)c1cc2ccccc2o1,–,inactive: -7.23%
C=CCc1cccc(CNc2nc3ccccc3n2CC)c1O,–,inactive: -2.35%
CCOC1CCNCC1,–,inactive: 35.2%
Nc1ccc2nc(SCC(=O)c3ccccc3)sc2c1,"inconclusive: 28.2 µM [inhibitor, single point]",–
Clc1cccc(Cl)c1CNc1ccc(N2CCCC2)cc1,"inconclusive: 31.6 µM [inhibitor, partial curve, poor fit]",–
COc1cc(OC)nc(C(NC(=O)C2CCN(Cc3ccc(Oc4ccccc4)cc3)CC2)c2ccccc2C)n1 (stereo not drawn),"inconclusive: 112 µM [inhibitor, single point]",–
CC(C)Cc1ccc(-c2cc3nc(NCCc4ccc(S(N)(=O)=O)cc4)ccn3n2)cc1,"inconclusive: 126 µM [inhibitor, partial curve, poor fit]",–
COc1cccc(-n2c(SCC(=O)N3CCCc4ccccc43)nc3c([nH]c4ccccc43)c2=O)c1,–,inactive: -5.21%
COc1cc(NC(=O)NC(C)c2c(-n3cccc3)sc3c2CCN(C)C3)cc(OC)c1 (stereo not drawn),"inconclusive: 89.1 µM [inhibitor, partial curve, poor fit]",–
CC(C)(C)S(=O)N1Cc2cc(C(=O)N3CCOCC3)nc(-c3cccc(Br)c3)c2[C@H]1CCO (stereo partly drawn),active: 5.01 µM,–
Cc1ccc(C2=NS(=O)(=O)N(C)C(C(=O)N3CCOCC3)=C2)cc1,–,inactive: -2.11%
CCc1ccc(C2=Nn3c(nnc3-c3cccs3)SC2)cc1,"inconclusive: 100 µM [inhibitor, single point]",–
Cc1ccccc1S(=O)(=O)N1C[C@H]2CON(C)[C@H]2C[C@H]1c1cccc(-c2ccc(C#N)cc2)c1,"inconclusive: 3.55 µM [inhibitor, full curve, poor fit]",–
COc1cccc(NC(=O)COC(=O)CCCc2c[nH]c3ccccc23)c1,"inconclusive: 158 µM [inhibitor, partial curve, poor fit]",–
COCCNc1nc(-c2ccccc2)nc2c1oc1ccccc12,"inconclusive: 39.8 µM [inhibitor, partial curve, poor fit]",–
COCCN(Cc1nccs1)Cc1cn[nH]c1-c1ccc(F)cc1,"inconclusive: 1.41 µM [inhibitor, full curve, poor fit]",–
CCOC(=O)CCCCCNCc1ccccc1,"inconclusive: 158 µM [inhibitor, partial curve, poor fit]",–
CCN(CC)C(=S)SCC(=O)Nc1nc(=O)c2ccccc2s1,"inconclusive: 35.5 µM [inhibitor, partial curve, poor fit]",–
CC1(NC(=O)c2ccccc2)CCN(CCc2cccs2)C1=O (stereo not drawn),–,inactive: 7.62%
CCn1c(C)c2c([n+]1CC)CC(C)(C)CC2=O,active: 12.6 µM,–
